The source of these data is publication PMC7862700.

Protein sequences, listed by entry. Tags and fused reporters are not part of them. Lines headed by an entry give the natural chain unless they say otherwise; changes in a name come on top.
UniProt Q01892: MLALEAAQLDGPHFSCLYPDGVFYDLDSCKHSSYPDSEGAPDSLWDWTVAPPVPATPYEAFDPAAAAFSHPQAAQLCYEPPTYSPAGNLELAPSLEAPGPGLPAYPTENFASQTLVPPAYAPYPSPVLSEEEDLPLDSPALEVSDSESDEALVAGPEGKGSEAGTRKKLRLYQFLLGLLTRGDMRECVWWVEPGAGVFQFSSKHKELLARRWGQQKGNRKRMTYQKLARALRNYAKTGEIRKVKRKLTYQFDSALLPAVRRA
UniProt P41161: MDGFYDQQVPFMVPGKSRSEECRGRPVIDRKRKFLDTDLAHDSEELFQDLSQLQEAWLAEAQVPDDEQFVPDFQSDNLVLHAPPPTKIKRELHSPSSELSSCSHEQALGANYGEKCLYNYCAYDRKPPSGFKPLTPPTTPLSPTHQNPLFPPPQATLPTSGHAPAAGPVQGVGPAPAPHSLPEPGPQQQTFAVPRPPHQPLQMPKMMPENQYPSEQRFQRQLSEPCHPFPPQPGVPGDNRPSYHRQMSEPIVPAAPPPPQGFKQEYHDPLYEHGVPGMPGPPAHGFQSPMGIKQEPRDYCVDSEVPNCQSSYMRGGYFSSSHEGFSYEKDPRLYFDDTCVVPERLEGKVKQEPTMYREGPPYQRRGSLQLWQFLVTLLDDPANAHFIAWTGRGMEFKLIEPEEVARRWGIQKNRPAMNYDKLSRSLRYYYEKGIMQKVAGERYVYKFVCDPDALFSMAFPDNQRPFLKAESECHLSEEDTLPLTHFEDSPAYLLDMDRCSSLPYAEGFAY
UniProt Q99607: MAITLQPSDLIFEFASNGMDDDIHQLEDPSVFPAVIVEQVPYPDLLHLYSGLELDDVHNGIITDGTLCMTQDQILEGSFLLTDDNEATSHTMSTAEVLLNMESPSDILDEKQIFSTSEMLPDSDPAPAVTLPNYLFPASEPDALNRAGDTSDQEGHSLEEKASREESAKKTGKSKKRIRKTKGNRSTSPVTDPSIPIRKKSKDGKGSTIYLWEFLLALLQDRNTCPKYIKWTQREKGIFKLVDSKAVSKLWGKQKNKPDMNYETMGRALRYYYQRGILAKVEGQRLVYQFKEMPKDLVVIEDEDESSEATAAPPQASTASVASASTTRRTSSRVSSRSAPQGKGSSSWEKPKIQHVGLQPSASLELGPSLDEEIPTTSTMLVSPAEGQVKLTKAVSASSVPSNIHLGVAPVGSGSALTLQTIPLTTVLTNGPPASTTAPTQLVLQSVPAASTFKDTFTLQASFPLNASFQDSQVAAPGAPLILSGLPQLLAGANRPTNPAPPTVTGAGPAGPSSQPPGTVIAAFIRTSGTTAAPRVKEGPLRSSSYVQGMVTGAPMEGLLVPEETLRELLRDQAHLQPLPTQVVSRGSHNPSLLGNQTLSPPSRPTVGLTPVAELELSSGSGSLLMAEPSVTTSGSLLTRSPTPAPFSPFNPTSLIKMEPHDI

What all share (experiment): DAPPL (digital affinity profiling via proximity ligation, sequencing)
Conditions in all cases: 10 mM Tris-HCl pH 7.5, 50 mM NaCl, 1 mM DTT, 4% glycerol, room temperature, 30 min; GST-TFs on glutathione beads, 16-mer random dsDNA library, 0.1% …; high values mean tight binding; double strand, one strand shown; scale: fold enrichment (6-mer frequency, TF over GST control)

The target of assay [1] is T1, FLI1 (UniProt Q01543).
T1 sequence: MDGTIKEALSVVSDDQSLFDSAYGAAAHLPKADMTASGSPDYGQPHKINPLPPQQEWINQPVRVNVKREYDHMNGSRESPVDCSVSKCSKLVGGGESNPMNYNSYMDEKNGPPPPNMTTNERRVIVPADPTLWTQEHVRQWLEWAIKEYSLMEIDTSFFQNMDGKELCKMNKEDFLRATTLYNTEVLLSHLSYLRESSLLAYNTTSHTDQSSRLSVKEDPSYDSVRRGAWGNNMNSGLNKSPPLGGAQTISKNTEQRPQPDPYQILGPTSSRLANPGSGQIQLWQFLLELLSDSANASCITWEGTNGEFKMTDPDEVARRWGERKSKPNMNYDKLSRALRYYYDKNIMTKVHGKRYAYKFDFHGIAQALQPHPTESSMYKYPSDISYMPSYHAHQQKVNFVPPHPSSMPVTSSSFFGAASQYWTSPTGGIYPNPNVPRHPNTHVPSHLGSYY

For assay [2], the target named is T2, EHF (UniProt Q9NZC4).
T2 sequence: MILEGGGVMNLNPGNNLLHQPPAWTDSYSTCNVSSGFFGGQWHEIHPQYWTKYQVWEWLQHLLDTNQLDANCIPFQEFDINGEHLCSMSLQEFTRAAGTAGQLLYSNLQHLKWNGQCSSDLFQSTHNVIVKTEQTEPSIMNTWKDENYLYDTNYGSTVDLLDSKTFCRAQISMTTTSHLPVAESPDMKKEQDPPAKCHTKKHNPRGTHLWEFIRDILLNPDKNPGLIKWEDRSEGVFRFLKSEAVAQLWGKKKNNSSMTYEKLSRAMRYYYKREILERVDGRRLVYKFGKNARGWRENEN

For assay [3], the target named is SPIB (UniProt Q01892).
Assay [4] concerns the target ETV5 (UniProt P41161).
Assay [5] addresses ELF4 (UniProt Q99607).
Assay [6] deals with T3, ETV2 (UniProt O00321).
T3 sequence: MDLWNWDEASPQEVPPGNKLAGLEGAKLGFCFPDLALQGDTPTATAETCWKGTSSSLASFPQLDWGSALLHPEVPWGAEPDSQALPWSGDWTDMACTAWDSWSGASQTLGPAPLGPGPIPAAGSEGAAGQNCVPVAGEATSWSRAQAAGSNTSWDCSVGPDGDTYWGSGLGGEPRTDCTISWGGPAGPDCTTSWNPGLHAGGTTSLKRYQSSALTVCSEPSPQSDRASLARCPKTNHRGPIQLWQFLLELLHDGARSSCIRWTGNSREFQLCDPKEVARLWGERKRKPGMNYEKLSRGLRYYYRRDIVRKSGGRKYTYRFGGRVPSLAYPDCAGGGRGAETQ

For assay [7], the target named is T4, ETV3L (UniProt Q6ZN32).
T4 sequence: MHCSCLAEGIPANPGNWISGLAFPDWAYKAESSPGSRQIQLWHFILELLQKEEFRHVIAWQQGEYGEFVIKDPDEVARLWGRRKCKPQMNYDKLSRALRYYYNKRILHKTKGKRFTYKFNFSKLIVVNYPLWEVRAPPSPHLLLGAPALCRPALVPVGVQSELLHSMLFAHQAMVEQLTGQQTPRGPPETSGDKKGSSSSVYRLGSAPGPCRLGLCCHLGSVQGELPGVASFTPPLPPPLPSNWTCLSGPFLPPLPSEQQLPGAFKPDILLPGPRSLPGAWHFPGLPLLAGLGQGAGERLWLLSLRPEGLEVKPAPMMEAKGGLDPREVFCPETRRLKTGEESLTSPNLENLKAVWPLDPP

The entries are a selection whose mix differs from that of the whole data set. At the low end of the ranking the order means little.

In the case of CAGACC, the binding signal in assay [1] worked out at 0.83; in assay [2], 0.786; in assay [3] it was 0.802; in assay [4] it was 0.798; in assay [5], 0.849; in assay [6], 0.911. In assay [7], the binding signal was determined as 0.75.

Take GGGGTA: the binding signal was 0.746 in assay [1]; 0.719 in assay [2]; 0.801 in assay [3]; 0.726 in assay [4]; 0.735 in assay [5]; 0.648 in assay [6]. For the same sequence, in assay [7], the binding signal amounted to 0.681.

With GAAGGG, the binding signal in assay [1] turned out to be 0.808; in assay [2], 0.775; in assay [3] it was 0.766; in assay [4] it was 0.82; in assay [5] it was 0.757; in assay [6] it was 0.846. Besides, in assay [7], the binding signal was 0.839.

As to CGTGTG, the binding signal stood at 0.46 in assay [1]; 0.421 in assay [2]; 0.443 in assay [3]; 0.42 in assay [4]; 0.418 in assay [5]; 0.41 in assay [6]. In assay [7], this sequence registered a binding signal of 0.426.

For the sequence TGACGT, the binding signal in assay [1] was 0.933; in assay [2] it was 0.887; in assay [3] it was 0.957; in assay [4], 0.881; in assay [5] it was 0.923; in assay [6], 0.879. The sequence also yielded a binding signal in assay [7] of 0.918.

As to ACGCAT, the binding signal was determined as 0.848 in assay [1]; 0.84 in assay [2]; 0.785 in assay [3]; 0.796 in assay [4]; 0.794 in assay [5]; 0.835 in assay [6]. The sequence further returned a binding signal in assay [7] of 0.824.

With TAGCCG, the binding signal was determined as 0.872 in assay [1]; 0.845 in assay [2]; 0.883 in assay [3]; 0.857 in assay [4]; 0.838 in assay [5]; 0.968 in assay [6]. The sequence also gave a binding signal in assay [7] of 0.891.

Take AGTGCG: the binding signal was determined as 0.852 in assay [1]; 0.924 in assay [2]; 0.781 in assay [3]; 0.911 in assay [4]; 0.877 in assay [5]; 0.881 in assay [6]. In assay [7], this sequence had a binding signal of 0.854.

For GCATGC, the binding signal in assay [1] worked out at 0.956; in assay [2] it was 0.948; in assay [3] it was 0.839; in assay [4], 0.828; in assay [5] it was 0.865; in assay [6], 0.766. The sequence also registered a binding signal in assay [7] of 0.957.

GCCGAG: the binding signal came out at 0.655 in assay [1]; 0.616 in assay [2]; 0.604 in assay [3]; 0.644 in assay [4]; 0.647 in assay [5]; 0.741 in assay [6]. In assay [7], this sequence yielded a binding signal of 0.668.

AGGTTG: the binding signal in assay [1] turned out to be 0.699; in assay [2], 0.812; in assay [3], 0.79; in assay [4] it was 0.74; in assay [5], 0.794; in assay [6], 0.89. Besides, the binding signal in assay [7] was 0.794.

Take GGCCGA: the binding signal in assay [1] is 0.765; in assay [2], 0.679; in assay [3], 0.819; in assay [4], 0.758; in assay [5], 0.693; in assay [6] it was 0.805. This sequence also returned a binding signal in assay [7] of 0.798.

Take GACAGA: the binding signal in assay [1] was found to be 0.64; in assay [2], 0.645; in assay [3], 0.647; in assay [4], 0.664; in assay [5], 0.687; in assay [6], 0.664. Moreover, the binding signal in assay [7] was found to be 0.654.

Consider CCAGTT, for which the binding signal in assay [1] came out at 0.594; in assay [2] it was 0.597; in assay [3], 0.681; in assay [4], 0.646; in assay [5] it was 0.638; in assay [6], 0.617. The binding signal in assay [7] came to 0.653.

Regarding GCGTAC, the binding signal was found to be 0.871 in assay [1]; 0.862 in assay [2]; 0.958 in assay [3]; 0.863 in assay [4]; 0.925 in assay [5]; 0.884 in assay [6]. For the same sequence, the binding signal in assay [7] turned out to be 0.984.

Consider CGGGAA, for which the binding signal in assay [1] turned out to be 0.755; in assay [2], 0.747; in assay [3] it was 0.799; in assay [4] it was 0.787; in assay [5] it was 0.736; in assay [6], 0.688. In assay [7], this sequence registered a binding signal of 0.725.

In the case of GGAGTT, the binding signal in assay [1] came out at 0.442; in assay [2] it was 0.47; in assay [3] it was 0.457; in assay [4] it was 0.465; in assay [5], 0.442; in assay [6], 0.503. In assay [7], this sequence had a binding signal of 0.43.

With TAGTGA, the binding signal came to 0.551 in assay [1]; 0.569 in assay [2]; 0.57 in assay [3]; 0.544 in assay [4]; 0.585 in assay [5]; 0.475 in assay [6]. The sequence further gave a binding signal in assay [7] of 0.598.

In the case of ATGTCG, the binding signal is 0.587 in assay [1]; 0.634 in assay [2]; 0.651 in assay [3]; 0.61 in assay [4]; 0.648 in assay [5]; 0.572 in assay [6]. In addition, the binding signal in assay [7] is 0.579.

As for CATGAG, the binding signal in assay [1] came out at 0.63; in assay [2], 0.651; in assay [3] it was 0.644; in assay [4] it was 0.619; in assay [5], 0.689; in assay [6], 0.58. Moreover, the binding signal in assay [7] came to 0.717.
